No constants are given. Whether binding was seen depends on the method and setting. Binding seen in cells or lysates may run through a third protein. Some binding calls cover weakened binding; strength is not graded here. Tags and fused reporters may be left off the sequences shown.
Key:
[1] = molecular target: T1, Atg9-PA (S. cerevisiae) (UniProt Q12142); assay: co-IP; PA-tagged bait (Atg9-PA or PA-Atg19) precipitated on IgG-Sepharose from spheroplast lysate; proteins overexpressed with a CUP1 promoter in an atg11∆ strain; GFP-Atg11 detected with anti-GFP
T1 sequence: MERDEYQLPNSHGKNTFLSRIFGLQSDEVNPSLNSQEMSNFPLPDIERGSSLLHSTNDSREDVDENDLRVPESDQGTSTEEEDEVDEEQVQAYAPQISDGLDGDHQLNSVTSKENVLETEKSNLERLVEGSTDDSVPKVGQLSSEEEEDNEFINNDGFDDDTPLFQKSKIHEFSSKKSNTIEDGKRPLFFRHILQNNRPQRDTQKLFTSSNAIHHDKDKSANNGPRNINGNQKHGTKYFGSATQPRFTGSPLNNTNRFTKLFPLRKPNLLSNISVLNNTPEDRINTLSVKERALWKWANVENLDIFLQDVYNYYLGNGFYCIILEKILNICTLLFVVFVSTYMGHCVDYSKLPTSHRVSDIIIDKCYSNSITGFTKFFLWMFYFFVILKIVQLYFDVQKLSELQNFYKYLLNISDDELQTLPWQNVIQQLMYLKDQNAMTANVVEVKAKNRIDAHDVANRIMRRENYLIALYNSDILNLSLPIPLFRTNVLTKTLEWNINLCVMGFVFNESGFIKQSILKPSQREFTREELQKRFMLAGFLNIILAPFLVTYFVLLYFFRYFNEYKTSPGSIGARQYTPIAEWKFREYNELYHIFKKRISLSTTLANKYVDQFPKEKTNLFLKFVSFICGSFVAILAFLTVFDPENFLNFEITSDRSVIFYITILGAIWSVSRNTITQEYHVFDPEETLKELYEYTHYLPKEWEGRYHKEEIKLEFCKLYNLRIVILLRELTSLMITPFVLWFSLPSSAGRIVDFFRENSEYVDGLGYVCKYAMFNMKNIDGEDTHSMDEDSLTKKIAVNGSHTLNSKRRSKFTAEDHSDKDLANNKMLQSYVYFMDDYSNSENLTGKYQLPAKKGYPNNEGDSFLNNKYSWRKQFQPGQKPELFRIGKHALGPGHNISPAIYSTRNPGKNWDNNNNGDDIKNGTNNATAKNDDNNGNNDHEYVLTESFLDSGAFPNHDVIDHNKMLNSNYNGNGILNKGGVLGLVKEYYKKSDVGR

[2] = molecular target: T2, PA-Atg19 (S. cerevisiae) (UniProt P35193); assay: as above
T2 sequence: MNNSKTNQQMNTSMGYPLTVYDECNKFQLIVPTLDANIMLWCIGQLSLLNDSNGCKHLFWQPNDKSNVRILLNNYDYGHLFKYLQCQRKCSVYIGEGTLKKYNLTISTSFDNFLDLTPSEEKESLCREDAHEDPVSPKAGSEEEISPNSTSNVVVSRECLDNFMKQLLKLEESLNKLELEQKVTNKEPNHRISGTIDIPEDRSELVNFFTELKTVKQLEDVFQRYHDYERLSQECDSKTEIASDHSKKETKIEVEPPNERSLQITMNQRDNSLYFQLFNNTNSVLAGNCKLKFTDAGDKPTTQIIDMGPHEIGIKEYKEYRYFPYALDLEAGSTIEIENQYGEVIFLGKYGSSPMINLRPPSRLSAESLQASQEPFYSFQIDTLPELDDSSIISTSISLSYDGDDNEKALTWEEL

binding [1]: binds
binding [2]: binds
B1: GFP-Atg11 (wild type) (protein, UniProt Q12527 1-1178)
chain: MADADEYSTAPTQQEITPLQTTATIINAISGECITTNVDFFVSLDKFKQFIARKWKIPPDQLLILLPYGNKLKPSMFKELLINRSFTLNDFYVYDRRLFSLVSKPTPTNLLTSKDSNPMNSPNSNDLTETLEYLIKNSHISQYQGSDTIMIKPMPSPLEDADVDLSRLNYHSVTSLLTTNLGWLSALEIDVHYFKSLIPDIIAHIKRIFDGLTVCSQYLKLYCFDVESLYNSNVQFLNQLVDNGMTSKWEKCFNDTLSKLTALEGDSLQKFINIESLLENEKSVKILNHSINGKLNKIKREIDENASFRDIITVNIDRLRQMFTPNESKFELEDQMAESFEVLVSEMRTRSRNVLDKEEEEFNSQEFLKSMNVMLEKDKKESVKTLFTISQALYSQIGELIDLKKSLQKHAVAILGNIAFTQMEILGIKRLLLNECNKDLELYKKYEVEFAQVEDLPLIYGLYLIEKYRRLSWFQQILSFISNFNQDLELFKQNELRTRNKWVKNFGSIATVFCEDLLSSSDFKRLNEYHSHTSPPNEDEEDENENSIANYRQDLVKVSQAIDNYMTQIKETDVSEPIIDLLSKTLFETKRFHIIYSNFKNNNNNSSNGNSISPEGSIALKSDDVVKGYKTRIKKLESLLHEFQYSDIGHWPQGVLNTHLKPFRGSATSINKKKFLGASVLLEPANISEVNIDSVSQANNHQIQELESNVDDLLHQLQLLKEENNRKSMQISEMGKKISDLEVEKTAYRETLTNLNQELARLTNEEQSHRTEIFTLNASFKKQLNDIISQDNEKIEKLTGDYDDVSKSRERLQMDLDESNKKHEQEVNLLKADIERLGKQIVTSEKSYAETNSSSMEKGEKFETIPLAEDPGRENQISAYTQTLQDRIFDIISTNIFILENIGLLLTFDNNNNIQIRRVKGLKKGTAQSNILDESTQMLDAHDNSLIKSPVFQKLKDEYELIKSVANGSEKDTQQSIFLGNITQLYDNKLYEVAVIRRFKDIETLAKKLTKENKIKRTLLERFQREKVTLRNFQIGDLALFLPTRENVNSVGSMSSSTSSLSSSFSSVDLSTPPPLDAMSIQSSPSVIHSNVINQASISGRDKNKLMRPWAAFTAFEESTRYFLKDEKGLTKGKEWFVGRIVTLEHFVADSPSNNPFRLPKGSVWFQVTAVVVSYQGV
